The record followed here is PubChem BioAssay AID1487 (National Center for Advancing Translational Sciences (NCATS), 2009).

The structures appear in SMILES notation. The list shows a part of the results. The main result of the screen is listed elsewhere. These columns were measured beside it and carry no call. The list favours compounds with an active or inconclusive main result. The note in brackets gives the kind of curve behind each potency; many fits are weak.

This experiment is described as follows: qHTS Assay for Modulators of Lamin A Splicing. The conditions noted are these: HeLa LMNA splicing GFP/RFP minigene ratio, 48 h. In short, it runs like this:
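S3 HeLa cells stably expressing lamin A-EGFP splicing minigene plus DsRed2, 600 cells/well, 48 h compound exposure at 37C. Laser-scanning cytometry; analysed as GFP (500-530 nm)/RFP (575-640 nm) total intensity ratio; 0.5% DMSO vehicle.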
A general note: qHTS replaces the single test concentration by a dilution series.

The mark [1] stands for this setting: measured here: GFP splicing reporter channel.
[2] abbreviates: measured here: RFP viability control channel.

By AC50 is commonly meant the midpoint of the concentration-response curve, whichever way the signal moves. For the molecule `CCc1cc(C(=O)COc2ccccc2F)c(O)cc1O`, the AC50 is, setting by setting: under setting [1], 28.2 µM [rising, single point]; under setting [2], 35.5 µM [rising, single point].
Take `Cc1ccc(N(CCC#N)C(=O)CCl)cc1C`: the AC50 was 35.5 µM [falling, single point] under setting [1] and 1.26 µM [falling, partial curve] under setting [2].
`Cn1c(SCC(=O)Nc2nc(C(C)(C)C)cs2)nnc1C1CC1`: the half-maximal activity concentration (AC50) under setting [2] is 11.2 µM [falling, partial curve, poor fit].
For the molecule `O=c1cc(N2CCC3(CC2)OCCO3)[nH]c(=O)n1C1CCCCC1`, the half-maximal activity concentration (AC50) is 1.12 µM [rising, full curve, poor fit] under setting [1] and 1.41 µM [rising, full curve, poor fit] under setting [2].
Turning to `COc1ccc(-c2nn(-c3ccccc3F)cc2CNCCn2nc(C)cc2C)cc1`, the AC50 was 0.01 µM [falling, full curve, poor fit] under setting [1] and 0.01 µM [falling, full curve, poor fit] under setting [2].
For the molecule `Cc1ccc(N2CCN(C(=O)c3cccn4c(=O)c5ccc(Cl)cc5nc34)CC2C)cc1` (stereo not given), the AC50 was 0.316 µM [falling, full curve, poor fit] under setting [1] and 0.891 µM [falling, full curve, poor fit] under setting [2].
Take `CCOc1cc2nc3c4ccccc4n(C)c3nc2cc1OCC`: the concentration at half-maximal activity (AC50) by setting is: under setting [1], 0.891 µM [falling, full curve, poor fit]; under setting [2], 0.891 µM [falling, full curve, poor fit].
Regarding `Cc1cc(C)c(C)c(S(=O)(=O)NCC(=O)NCc2ccco2)c1C`, the half-maximal activity concentration (AC50) under setting [1] is 35.5 µM [rising, single point].
Same read-out and setting: to `CCCn1c(=O)c(C(=O)NCc2ccco2)c(O)c2ccccc21` belongs 5.62 µM [falling, single point].
`COc1ccc(CNc2ccc(C)c(C)c2)cc1`: the concentration at half-maximal activity (AC50) by setting is: under setting [1], 7.08 µM [rising, partial curve, poor fit]; under setting [2], 12.6 µM [rising, partial curve, poor fit].
For `FC(F)(F)c1cnc(N2CCCN(C(=S)Nc3ccccc3)CC2)c(Cl)c1`, the half-maximal activity concentration (AC50) under setting [1] is 2 µM [falling, partial curve, poor fit] and the AC50 under setting [2] was 2.24 µM [falling, partial curve, poor fit].
On to `Cc1cc(Cl)ccc1C(=O)C1CCCN(C(=O)c2ccc3ncccc3c2)C1` (stereo not given), for which the AC50 under setting [1] was 7.94 µM [falling, partial curve, poor fit] and the AC50 under setting [2] was 4.47 µM [falling, full curve].
`CCCCc1ccc(NS(=O)(=O)c2cc3c4c(c2)CC(=O)N4CCC3)cc1`: the half-maximal activity concentration (AC50) by setting is: under setting [1], 17.8 µM [rising, partial curve]; under setting [2], 28.2 µM [rising, single point].
For `Cc1ccc(S(=O)(=O)N(C)c2ccc(C(=O)Nc3c(C)n(C)n(-c4ccccc4)c3=O)cc2)cc1`, the AC50 was 0.141 µM [falling, full curve, poor fit] under setting [1] and 0.0891 µM [falling, full curve] under setting [2].
With `C/C(=N\NC(=O)c1cc(-c2cccs2)nc2ccccc12)c1ccccn1`, under setting [1], the half-maximal activity concentration (AC50) is 0.891 µM [falling, partial curve, poor fit].
For the molecule `COc1ccc(NC(=O)c2c(F)cccc2F)cc1S(=O)(=O)Nc1ccc(Br)cc1`, under setting [2], the concentration at half-maximal activity (AC50) was 28.2 µM [rising, single point].
Still for that read-out and setting: to `CCOc1cc(/C=C/c2ccc3cccc([N+](=O)[O-])c3n2)ccc1OCC(=O)N(C)C` belongs 10 µM [rising, partial curve].
For the molecule `CS(=O)(=O)c1ncc(Cl)c(C(=O)Nc2ccc3ccccc3c2)n1`, the AC50 reads like this: under setting [1], 10 µM [falling, partial curve, poor fit]; under setting [2], 5.62 µM [falling, full curve, poor fit].
For `CC(C)C(c1nnnn1C1CCCC1)N1c2ccccc2CC1C` (stereo not given), under setting [2], the AC50 is 35.5 µM [rising, single point].
Still for that read-out and setting: to `CCOc1ccc(NC(=O)c2cc3c(C)nc4ccccc4c3o2)cc1` belongs 10 µM [rising, partial curve, poor fit].
As to `COc1ccc(Cl)cc1NC(=O)COC(=O)c1cc(NS(=O)(=O)c2cccs2)ccc1O`, the AC50 runs as follows: under setting [1], 11.2 µM [rising, single point]; under setting [2], 7.94 µM [rising, partial curve].
Regarding `COc1ccc(Cc2nnc(SCc3ccc([N+](=O)[O-])cc3)o2)cc1`, the half-maximal activity concentration (AC50) under setting [2] is 15.8 µM [rising, partial curve, poor fit].
With `O=S(=O)(c1ccccc1)N1c2cc(Cl)ccc2Oc2nc3ccccc3nc21`, the concentration at half-maximal activity (AC50) was 6.31 µM [rising, partial curve] under setting [1] and 11.2 µM [rising, partial curve] under setting [2].
Take `COc1cc(/C=C/C(=O)C2C(=O)C=C(C)OC2=O)cc(OC)c1O` (stereo not given): the AC50 under setting [2] was 35.5 µM [rising, single point].
On the same count and under the same terms, to `Cn1c(=O)c2c(n3cnnc13)-c1ccccc1CC21CCCC1` belongs 1.41 µM [rising, full curve]; to `Cc1c(C(=O)NCc2ccc3c(c2)OCO3)oc2ccc(S(=O)(=O)N3CCC(C)CC3)cc12`, 14.1 µM [rising, single point]; to `COc1ccccc1OCCC(=O)O`, 0.0282 µM [falling, full curve, poor fit].
For `CCCC(C)C(=O)Nc1ccc(S(=O)(=O)Nc2nccc(C)n2)cc1` (stereo not given), the concentration at half-maximal activity (AC50) is 0.178 µM [rising, full curve, poor fit] under setting [1] and 2.24 µM [rising, partial curve, poor fit] under setting [2].
With `N#CCc1ccc(NS(=O)(=O)c2ccc(N3CCCC3=O)cc2)cc1`, the half-maximal activity concentration (AC50) by setting is: under setting [1], 20 µM [rising, single point]; under setting [2], 31.6 µM [rising, single point].
`COCCNC(=O)C1(C)C=CC2(CCCCC2)N1C(=O)c1ccccc1` (stereo not given): the AC50 under setting [2] is 0.1 µM [rising, full curve].
The same measure, in the same setting: to `Cc1csc(SC(C)C(=O)NCc2ccc3c(c2)OCO3)n1` (stereo not given) belongs 1.26 µM [falling, partial curve, poor fit]; to `CCOC(=O)c1c(S(=O)(=O)N2CCC(C(=O)Nc3ccc(C)c(Cl)c3)CC2)c(C)n(C)c1C`, 0.01 µM [falling, full curve, poor fit].
Take `Clc1ccc(CSc2nnc(-c3cccnc3)n2Cc2ccco2)c(Cl)c1`: the AC50 runs as follows: under setting [1], 22.4 µM [rising, single point]; under setting [2], 14.1 µM [rising, single point].
As to `Cc1ccc2[nH]c(=O)c(CN(CCCN3CCOCC3)C(=O)Nc3ccc(Cl)cc3)cc2c1`, the AC50 under setting [1] was 0.00355 µM [rising, full curve, poor fit].
As to `O=C(Nc1ccc(S(=O)(=O)N2CCCCC2)cc1)C1CCCN(C(=O)c2ccc(Cl)cc2)C1` (stereo not given), the concentration at half-maximal activity (AC50) under setting [1] was 2.24 µM [rising, single point] and the concentration at half-maximal activity (AC50) under setting [2] was 5.62 µM [rising, full curve].
As for `O=C(c1ccc([N+](=O)[O-])s1)N1CCN(c2cccc(Cl)c2)CC1`, the AC50 reads like this: under setting [1], 11.2 µM [rising, single point]; under setting [2], 20 µM [rising, single point].
As for `O=S(=O)(c1ccc(-c2cnc(C3CC3)o2)cc1)N1CCN(c2ccc(F)cc2)CC1`, under setting [2], the AC50 was 0.316 µM [rising, full curve].
In the case of `COC(=O)c1c(NC(=O)c2ccccc2N(C)S(=O)(=O)c2ccccc2)sc2c1CCCC2`, the AC50 under setting [2] is 3.16 µM [rising, single point].
Consider `COc1ccc(OC)c(NC(=O)CSC2=Nc3ccccc3C3=NC(CC(=O)NCCc4ccccc4)C(=O)N23)c1` (stereo not given), for which the AC50 under setting [1] was 10 µM [rising, partial curve].
On to `C=CCOc1ccc(NC(=O)C(=O)NCCCn2ccnc2)cc1`, for which the AC50 under setting [2] was 28.2 µM [falling, single point].
Same read-out and setting: to `O=C(N/N=C1\CC(c2ccccc2)Oc2ccccc21)c1cccnc1` (stereo not given) belongs 0.398 µM [falling, full curve, poor fit].
As for `Cc1ccc(NC(=O)C(=O)NCCN2CCN(S(C)(=O)=O)CC2)cc1C`, the concentration at half-maximal activity (AC50) under setting [1] is 0.282 µM [rising, full curve, poor fit].
For the molecule `Cc1cc2nc(N3C(=O)CNC3=S)sc2cc1C`, the concentration at half-maximal activity (AC50) under setting [2] was 35.5 µM [rising, single point].
As to `Oc1c(C(c2ccccc2)N2CCCC2)sc2nc(-c3ccco3)nn12` (stereo not given), the half-maximal activity concentration (AC50) under setting [1] is 2.82 µM [rising, full curve, poor fit].
For `CCOC(=O)/C(C#N)=N/Nc1c(S(=O)(=O)Cc2ccco2)csc1C(=O)OC`, the half-maximal activity concentration (AC50) under setting [2] is 1.78 µM [falling, partial curve].
For the molecule `CCOC(=O)c1c(C)[nH]c(CCC(=O)NCc2cc(OC)c(OC)c(OC)c2)c1C`, the AC50 is 0.398 µM [rising, full curve] under setting [1] and 7.08 µM [rising, partial curve] under setting [2].
As to `OCCC1CN(Cc2cccc(-c3ccco3)c2)CCN1Cc1ccsc1` (stereo not given), under setting [2], the AC50 is 7.94 µM [falling, full curve, poor fit].
On the same count and under the same terms, the value for `O=[N+]([O-])c1ccc(NNC(=S)Nc2ccc(F)cc2)cc1` was 17.8 µM [rising, single point]; that for `CC(=O)Nc1sc2c(c1C(c1ccccc1)N1CCOCC1)CCCC2` (stereo not given) was 15.8 µM [rising, single point].
`COc1cc(OC)cc(C(=O)N/N=C/c2ccc(OC)c(COc3ccc(F)cc3)c2)c1`: the half-maximal activity concentration (AC50) by setting is: under setting [1], 5.01 µM [falling, full curve]; under setting [2], 6.31 µM [falling, full curve].
As to `COc1cccc(C2CC(c3ccccc3)=NN2S(=O)(=O)c2ccc(C)cc2)c1OC` (stereo not given), the AC50 by setting is: under setting [1], 5.62 µM [rising, partial curve, poor fit]; under setting [2], 6.31 µM [rising, partial curve, poor fit].
On to `N=c1n(Cc2ccccc2)c2ccccc2n1Cc1ccccc1`, for which the AC50 runs as follows: under setting [1], 15.8 µM [rising, single point]; under setting [2], 31.6 µM [rising, single point].
